PubChem BioAssay AID652259 | Drosophila RNAi Screening Center – 2013
The screen tested about 22,000 reagents; this is an unselected part of those that have a named target and a result. Of all reagents, 233 (1.1%) were called active. 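Light values are raw, unnormalised plate reads; the ratio scores behind the reporter calls were not deposited.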 Entries without a mark were called inactive. A plus sign joins genes that one reagent is predicted to hit. The record does not give: the amount of reagent, the time to read-out, the dose of the treatment.

- Aim: 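Genome-wide hunt for genes that control Wingless pathway activity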 (primary screen)
- System: Drosophila clone 8 imaginal disc epithelial cells
- Knock-down reagent: long dsRNA against Drosophila genes
- Treatment: pathway stimulated by co-transfected Wingless expression plasmid
- Read-out: 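Dual luciferase reads per well after Wingless plasmid stimulation: reporter firefly light and Renilla control light; activity is firefly divided by Renilla, a ratio not deposited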
- Reading the numbers: firefly reporter light: higher = more Wg reporter light, before normalisation; Renilla control light: higher = more transfected or surviving cells
- Call rule: 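Strong candidates differ from their plate mean by at least two out of four per-plate statistical tests; weak candidates meet just one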
- Calls: active = candidate regulator (raises or lowers reporter); inactive = not a candidate

Target gene,amplicon,"firefly reporter light, replicate 1","firefly reporter light, replicate 2","Renilla control light, replicate 1","Renilla control light, replicate 2"
CG31909,DRSC22180,9.59e5,9.42e5,4.89e5,4.46e5
CG14280,DRSC14761,10416,,2435,
CG11786,DRSC14389,20192,,17402,
TfIIFbeta,DRSC16884,21547,,5984,
TfIIFbeta,DRSC21447,3.10e5,3.60e5,1.17e5,89516
CG13875,DRSC08345,5274,,2902,
DIP2,DRSC08582,13418,,4314,
CG15118,DRSC06540,9787,,3221,
CG1440,DRSC17915,31035,,14108,
Ccp84Aa,DRSC12586,16848,,4450,
P5cr-2,DRSC15889,12059,,3050,
fabp + sea,DRSC16114,4038,,1751,
fabp + sea,DRSC16115,11704,,2840,
D1,DRSC16638,7324,,2435,
RhoGAP19D,DRSC20499,2819,7830,1218,2448
RhoGAP19D,DRSC20500,29627,,11671,
CG18622,DRSC15360,12027,,2996,
CAP,DRSC05215,22121,,19597,
CAP,DRSC06743,6182,,2663,
CAP,DRSC06744,6970,18064,712,2759
CAP,DRSC06745,2851,7510,1092,4006
CAP,DRSC06846,3282,10714,1168,4353
Glo1,DRSC06657,1597,5565,576,2371
CG13601,DRSC14604,3489,6264,1691,2674
side-VI,DRSC12828,3429,,1542,
side-VI,DRSC12830,4224,,1861,
side-VI,DRSC14920,18994,,4768,
side-VI,DRSC15624,17661,,3220,
CG6793,DRSC10714,8842,,2937,
